# Source: PMC10786908
# By UniProt entry, the sequences of proteins in these tests, tags left out. Residues count along the entry.
# UniProt O14763, residues 56-440: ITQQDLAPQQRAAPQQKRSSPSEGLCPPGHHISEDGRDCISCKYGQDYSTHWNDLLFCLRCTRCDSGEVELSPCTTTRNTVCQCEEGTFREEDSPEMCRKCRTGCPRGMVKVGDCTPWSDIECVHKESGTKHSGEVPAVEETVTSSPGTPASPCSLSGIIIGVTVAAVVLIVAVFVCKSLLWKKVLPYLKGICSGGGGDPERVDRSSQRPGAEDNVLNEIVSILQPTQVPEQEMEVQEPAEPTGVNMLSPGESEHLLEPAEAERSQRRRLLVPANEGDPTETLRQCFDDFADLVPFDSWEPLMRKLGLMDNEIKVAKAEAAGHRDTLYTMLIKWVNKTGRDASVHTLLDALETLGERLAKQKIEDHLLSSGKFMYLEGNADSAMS
# UniProt Q13158: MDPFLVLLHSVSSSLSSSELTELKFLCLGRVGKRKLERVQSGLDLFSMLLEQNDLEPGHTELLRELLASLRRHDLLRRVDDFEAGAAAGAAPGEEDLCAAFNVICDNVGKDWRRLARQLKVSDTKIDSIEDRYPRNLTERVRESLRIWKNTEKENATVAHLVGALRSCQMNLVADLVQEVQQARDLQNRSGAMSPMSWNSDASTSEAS
# These are yes or no findings as the source states them, for the method shown. Binding seen in cells or lysates may run through a third protein. Some entries that bind do so weakly or less than the wild type.
# Molecular target: TRAIL-R2 (human (endogenous in OE33, HT29, HCT116)) (UniProt O14763)
# Assay: co-IP; TRAIL-R2 DISC IP: activating TRAIL-R2 antibody AMG655 (Conatumumab) coupled to Dynabeads; cells treated for 1 h to induce the DISC; OE33 (control shRNA or stable Itch knockdown), HT29 and HCT116 (control or ITCH siRNA); Western blot
substance,measurement,value
FADD (from UniProt Q13158 1-208),binding,binds
